Results reported in the supplement of paper PMC10849652.
The list shows a part of the results.

Chains of the proteins cited; added tags and fusions are not shown. Lines headed by an entry give the natural chain unless they say otherwise; changes in a name come on top.
UniProt Q8TD08: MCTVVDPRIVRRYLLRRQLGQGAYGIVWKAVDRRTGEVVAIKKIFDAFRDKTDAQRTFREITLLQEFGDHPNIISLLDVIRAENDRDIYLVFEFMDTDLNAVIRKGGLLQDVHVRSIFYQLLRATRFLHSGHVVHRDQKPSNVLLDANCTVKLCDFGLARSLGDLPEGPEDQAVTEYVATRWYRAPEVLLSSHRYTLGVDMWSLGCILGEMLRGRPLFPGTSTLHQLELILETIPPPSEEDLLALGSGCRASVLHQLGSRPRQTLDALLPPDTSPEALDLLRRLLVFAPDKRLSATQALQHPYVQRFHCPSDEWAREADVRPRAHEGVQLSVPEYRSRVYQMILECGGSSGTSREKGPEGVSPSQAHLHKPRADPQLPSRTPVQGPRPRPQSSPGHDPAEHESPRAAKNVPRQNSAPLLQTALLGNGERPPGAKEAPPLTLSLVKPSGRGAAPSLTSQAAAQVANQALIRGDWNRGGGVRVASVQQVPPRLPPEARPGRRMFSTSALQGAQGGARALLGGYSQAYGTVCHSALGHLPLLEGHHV
UniProt P07948: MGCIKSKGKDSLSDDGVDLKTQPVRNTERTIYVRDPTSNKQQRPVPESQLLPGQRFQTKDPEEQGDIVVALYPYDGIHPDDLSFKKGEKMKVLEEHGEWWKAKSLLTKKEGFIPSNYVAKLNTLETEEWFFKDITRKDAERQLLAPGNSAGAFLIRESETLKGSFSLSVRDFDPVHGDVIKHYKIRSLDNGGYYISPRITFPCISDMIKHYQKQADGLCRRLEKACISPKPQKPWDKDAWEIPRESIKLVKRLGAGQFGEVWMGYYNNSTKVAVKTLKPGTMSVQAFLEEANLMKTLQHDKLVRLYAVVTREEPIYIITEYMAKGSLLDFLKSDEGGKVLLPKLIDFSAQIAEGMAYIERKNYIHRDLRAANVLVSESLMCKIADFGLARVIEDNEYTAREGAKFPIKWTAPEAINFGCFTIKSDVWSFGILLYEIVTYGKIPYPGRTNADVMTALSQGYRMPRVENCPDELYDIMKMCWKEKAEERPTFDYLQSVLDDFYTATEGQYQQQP
UniProt Q13233: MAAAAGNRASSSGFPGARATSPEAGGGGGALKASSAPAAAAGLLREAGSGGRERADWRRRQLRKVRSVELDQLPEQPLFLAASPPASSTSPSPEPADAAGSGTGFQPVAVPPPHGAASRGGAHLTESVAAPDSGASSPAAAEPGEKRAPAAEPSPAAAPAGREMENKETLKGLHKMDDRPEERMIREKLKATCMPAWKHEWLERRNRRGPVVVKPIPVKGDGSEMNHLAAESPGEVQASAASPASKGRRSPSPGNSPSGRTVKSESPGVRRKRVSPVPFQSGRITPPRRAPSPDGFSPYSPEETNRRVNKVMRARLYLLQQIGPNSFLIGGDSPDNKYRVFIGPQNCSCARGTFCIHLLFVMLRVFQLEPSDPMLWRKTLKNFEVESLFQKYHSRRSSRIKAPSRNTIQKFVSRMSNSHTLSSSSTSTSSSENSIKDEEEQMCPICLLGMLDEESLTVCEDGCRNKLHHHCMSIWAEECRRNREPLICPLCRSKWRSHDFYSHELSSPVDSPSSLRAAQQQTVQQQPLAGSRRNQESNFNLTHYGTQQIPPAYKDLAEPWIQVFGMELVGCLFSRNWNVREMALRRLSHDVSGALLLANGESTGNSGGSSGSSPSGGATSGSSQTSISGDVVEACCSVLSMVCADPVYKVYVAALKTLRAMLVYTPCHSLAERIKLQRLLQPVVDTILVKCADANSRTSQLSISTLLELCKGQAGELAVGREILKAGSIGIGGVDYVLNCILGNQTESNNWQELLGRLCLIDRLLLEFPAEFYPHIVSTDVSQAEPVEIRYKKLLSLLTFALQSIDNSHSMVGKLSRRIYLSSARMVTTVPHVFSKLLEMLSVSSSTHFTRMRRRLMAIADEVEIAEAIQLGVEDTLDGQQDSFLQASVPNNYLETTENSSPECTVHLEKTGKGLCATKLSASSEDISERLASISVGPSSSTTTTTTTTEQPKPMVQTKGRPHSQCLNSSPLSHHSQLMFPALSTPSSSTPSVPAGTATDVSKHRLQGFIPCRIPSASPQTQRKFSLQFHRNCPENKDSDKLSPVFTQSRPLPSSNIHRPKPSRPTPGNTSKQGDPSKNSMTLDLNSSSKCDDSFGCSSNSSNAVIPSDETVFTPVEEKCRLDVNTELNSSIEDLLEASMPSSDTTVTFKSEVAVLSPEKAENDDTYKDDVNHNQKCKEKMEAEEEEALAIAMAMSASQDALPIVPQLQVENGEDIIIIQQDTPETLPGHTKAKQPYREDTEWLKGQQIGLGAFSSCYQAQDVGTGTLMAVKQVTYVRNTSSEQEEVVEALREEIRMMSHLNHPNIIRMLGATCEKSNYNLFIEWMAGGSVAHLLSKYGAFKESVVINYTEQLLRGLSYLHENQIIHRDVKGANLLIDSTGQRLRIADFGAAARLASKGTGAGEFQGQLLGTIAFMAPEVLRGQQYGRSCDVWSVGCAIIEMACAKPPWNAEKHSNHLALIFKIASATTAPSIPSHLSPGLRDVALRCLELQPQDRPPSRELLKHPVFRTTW

Key:
Test in all cases: log2 fold change, soluble protein after heating vs DMSO (PISA); higher = thermal stabilisation; K562 lysate, 10 uM; active = over 0.2 and 3.5 SD of the protein, either way, in both replicates (recomputed)
vorinostat = compound: O=C(CCCCCCC(=O)Nc1ccccc1)NO [vorinostat]
Procedure, shortened: (§1)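 Values give the log-two fold change in thermal stability against solvent controls, from duplicates. Crude K562 extract at 1 mg/mL protein, made by dounce homogenisation in PBS pH 7.4 with 1 mM MgCl2, was treated with 10 μM compound for 30 min. After 3 min heating across 48°C-58°C, aliquots were pooled, adjusted to 0.5% NP-40 at 4°C and centrifuged at 21,000xg for 90 min. The supernatant was measured by TMTpro 16plex LC-MS/MS with channel sums equalised.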

silmitasertib = compound: O=C(O)c1ccc2c(c1)nc(Nc1cccc(Cl)c1)c1ccncc12 [silmitasertib]
Procedure, shortened: as §1

[1] = compound: O=C1NC(=O)C(c2cnc3ccccn23)=C1c1cn2c3c(cc(F)cc13)CN(C(=O)N1CCCCC1)CC2
Procedure, shortened: as §1

entospletinib = compound: c1cn2cc(-c3ccc4cn[nH]c4c3)nc(Nc3ccc(N4CCOCC4)cc3)c2n1 [entospletinib]
Procedure, shortened: as §1

[2] = compound: NCC(=O)Nc1ccc(-n2nc(C(F)(F)F)cc2-c2ccc3c(ccc4ccccc43)c2)cc1
Procedure, shortened: as §1

Measured: log2 fold change

MAPK15 (UniProt Q8TD08)
inactive: vorinostat 0.024 | silmitasertib 0.271 | [1] 0.311

LYN isoform 2 (UniProt P07948)
inactive: vorinostat -0.118 | silmitasertib 0.049 | [1] -0.31 | entospletinib 0.129

MAP3K1 (UniProt Q13233)
inactive: [2] -0.228 | [1] -0.068 | entospletinib -0.143
